# Reference: the supplement of paper PMC10849652
# Sequences of proteins named here, by UniProt entry; tags and fusion partners are left off. A change or cut given only in a name is not applied to a line headed by its entry.
# UniProt P51617, whole entry, looked up: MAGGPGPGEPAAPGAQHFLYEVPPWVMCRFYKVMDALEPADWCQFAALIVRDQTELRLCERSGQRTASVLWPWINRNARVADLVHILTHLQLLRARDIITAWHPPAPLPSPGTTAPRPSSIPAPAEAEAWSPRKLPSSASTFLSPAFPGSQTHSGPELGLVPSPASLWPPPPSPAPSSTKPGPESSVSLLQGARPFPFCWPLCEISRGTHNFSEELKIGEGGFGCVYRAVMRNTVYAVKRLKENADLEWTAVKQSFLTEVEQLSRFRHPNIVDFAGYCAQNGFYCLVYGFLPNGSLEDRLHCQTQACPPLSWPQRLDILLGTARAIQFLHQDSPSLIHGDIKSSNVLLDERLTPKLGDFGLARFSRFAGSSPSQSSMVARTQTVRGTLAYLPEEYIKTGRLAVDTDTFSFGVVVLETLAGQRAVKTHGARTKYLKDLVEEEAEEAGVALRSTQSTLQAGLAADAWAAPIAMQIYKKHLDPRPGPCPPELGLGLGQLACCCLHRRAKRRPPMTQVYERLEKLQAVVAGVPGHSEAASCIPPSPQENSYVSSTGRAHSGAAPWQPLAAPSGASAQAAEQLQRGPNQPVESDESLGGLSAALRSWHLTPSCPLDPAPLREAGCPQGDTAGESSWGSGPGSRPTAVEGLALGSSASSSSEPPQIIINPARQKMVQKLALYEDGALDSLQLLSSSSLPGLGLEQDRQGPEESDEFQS
# UniProt Q9H1B7, whole entry, looked up: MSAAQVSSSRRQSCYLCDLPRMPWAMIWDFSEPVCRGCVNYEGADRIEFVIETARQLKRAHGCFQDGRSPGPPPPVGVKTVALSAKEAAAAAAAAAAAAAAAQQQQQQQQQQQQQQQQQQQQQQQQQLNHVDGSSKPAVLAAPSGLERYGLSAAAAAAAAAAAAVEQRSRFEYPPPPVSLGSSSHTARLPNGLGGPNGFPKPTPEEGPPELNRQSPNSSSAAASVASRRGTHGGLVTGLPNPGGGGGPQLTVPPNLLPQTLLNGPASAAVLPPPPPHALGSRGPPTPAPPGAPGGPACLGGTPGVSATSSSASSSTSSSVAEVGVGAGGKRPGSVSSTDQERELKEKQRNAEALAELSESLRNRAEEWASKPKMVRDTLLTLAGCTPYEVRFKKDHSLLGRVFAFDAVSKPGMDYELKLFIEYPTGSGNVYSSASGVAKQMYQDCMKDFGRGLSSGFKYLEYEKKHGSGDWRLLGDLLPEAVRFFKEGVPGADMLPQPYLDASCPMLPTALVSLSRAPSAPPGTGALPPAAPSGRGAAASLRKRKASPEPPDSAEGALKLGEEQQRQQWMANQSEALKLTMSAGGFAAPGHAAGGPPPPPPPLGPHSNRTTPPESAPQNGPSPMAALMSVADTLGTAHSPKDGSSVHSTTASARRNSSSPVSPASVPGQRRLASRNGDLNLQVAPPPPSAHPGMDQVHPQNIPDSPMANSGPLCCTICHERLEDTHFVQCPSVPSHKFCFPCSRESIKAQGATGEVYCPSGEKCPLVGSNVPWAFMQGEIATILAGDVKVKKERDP
# UniProt Q9BW62: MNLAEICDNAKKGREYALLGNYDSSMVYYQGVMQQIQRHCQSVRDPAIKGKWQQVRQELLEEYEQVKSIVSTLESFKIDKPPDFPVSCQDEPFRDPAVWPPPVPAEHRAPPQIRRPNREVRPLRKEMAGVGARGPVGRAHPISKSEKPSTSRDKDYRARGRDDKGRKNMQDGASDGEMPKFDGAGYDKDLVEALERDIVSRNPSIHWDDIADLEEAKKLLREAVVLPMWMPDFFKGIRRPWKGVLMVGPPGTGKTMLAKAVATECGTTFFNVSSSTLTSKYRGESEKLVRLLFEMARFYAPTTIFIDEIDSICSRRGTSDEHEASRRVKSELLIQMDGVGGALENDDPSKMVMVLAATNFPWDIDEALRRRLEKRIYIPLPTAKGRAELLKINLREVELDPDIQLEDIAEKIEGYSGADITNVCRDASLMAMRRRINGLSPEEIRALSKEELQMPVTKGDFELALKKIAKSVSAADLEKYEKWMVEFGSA
# UniProt Q14681: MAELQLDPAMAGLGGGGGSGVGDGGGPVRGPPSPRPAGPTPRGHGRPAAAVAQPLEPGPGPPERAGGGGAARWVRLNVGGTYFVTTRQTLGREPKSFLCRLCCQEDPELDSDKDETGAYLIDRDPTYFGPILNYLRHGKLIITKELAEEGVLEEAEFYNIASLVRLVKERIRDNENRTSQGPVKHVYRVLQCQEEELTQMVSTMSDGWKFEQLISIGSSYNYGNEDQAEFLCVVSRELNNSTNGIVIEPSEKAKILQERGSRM
# UniProt O43736: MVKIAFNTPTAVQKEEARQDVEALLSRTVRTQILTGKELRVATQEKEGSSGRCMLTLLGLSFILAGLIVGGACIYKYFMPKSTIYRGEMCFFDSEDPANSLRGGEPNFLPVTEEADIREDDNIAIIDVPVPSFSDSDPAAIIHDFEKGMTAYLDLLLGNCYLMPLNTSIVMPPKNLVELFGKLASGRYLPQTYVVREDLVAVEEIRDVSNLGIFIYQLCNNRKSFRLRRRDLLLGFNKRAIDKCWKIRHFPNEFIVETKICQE
# UniProt Q13303: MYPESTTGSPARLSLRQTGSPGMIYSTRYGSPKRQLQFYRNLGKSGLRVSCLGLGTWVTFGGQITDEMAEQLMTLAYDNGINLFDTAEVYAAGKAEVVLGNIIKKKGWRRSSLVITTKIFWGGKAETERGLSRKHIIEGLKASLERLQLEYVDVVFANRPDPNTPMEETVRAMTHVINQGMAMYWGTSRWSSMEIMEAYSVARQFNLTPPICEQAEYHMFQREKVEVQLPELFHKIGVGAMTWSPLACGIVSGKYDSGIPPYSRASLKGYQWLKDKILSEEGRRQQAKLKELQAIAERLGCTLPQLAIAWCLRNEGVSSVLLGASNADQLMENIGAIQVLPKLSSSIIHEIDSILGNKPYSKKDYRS
# UniProt Q9Y4C1: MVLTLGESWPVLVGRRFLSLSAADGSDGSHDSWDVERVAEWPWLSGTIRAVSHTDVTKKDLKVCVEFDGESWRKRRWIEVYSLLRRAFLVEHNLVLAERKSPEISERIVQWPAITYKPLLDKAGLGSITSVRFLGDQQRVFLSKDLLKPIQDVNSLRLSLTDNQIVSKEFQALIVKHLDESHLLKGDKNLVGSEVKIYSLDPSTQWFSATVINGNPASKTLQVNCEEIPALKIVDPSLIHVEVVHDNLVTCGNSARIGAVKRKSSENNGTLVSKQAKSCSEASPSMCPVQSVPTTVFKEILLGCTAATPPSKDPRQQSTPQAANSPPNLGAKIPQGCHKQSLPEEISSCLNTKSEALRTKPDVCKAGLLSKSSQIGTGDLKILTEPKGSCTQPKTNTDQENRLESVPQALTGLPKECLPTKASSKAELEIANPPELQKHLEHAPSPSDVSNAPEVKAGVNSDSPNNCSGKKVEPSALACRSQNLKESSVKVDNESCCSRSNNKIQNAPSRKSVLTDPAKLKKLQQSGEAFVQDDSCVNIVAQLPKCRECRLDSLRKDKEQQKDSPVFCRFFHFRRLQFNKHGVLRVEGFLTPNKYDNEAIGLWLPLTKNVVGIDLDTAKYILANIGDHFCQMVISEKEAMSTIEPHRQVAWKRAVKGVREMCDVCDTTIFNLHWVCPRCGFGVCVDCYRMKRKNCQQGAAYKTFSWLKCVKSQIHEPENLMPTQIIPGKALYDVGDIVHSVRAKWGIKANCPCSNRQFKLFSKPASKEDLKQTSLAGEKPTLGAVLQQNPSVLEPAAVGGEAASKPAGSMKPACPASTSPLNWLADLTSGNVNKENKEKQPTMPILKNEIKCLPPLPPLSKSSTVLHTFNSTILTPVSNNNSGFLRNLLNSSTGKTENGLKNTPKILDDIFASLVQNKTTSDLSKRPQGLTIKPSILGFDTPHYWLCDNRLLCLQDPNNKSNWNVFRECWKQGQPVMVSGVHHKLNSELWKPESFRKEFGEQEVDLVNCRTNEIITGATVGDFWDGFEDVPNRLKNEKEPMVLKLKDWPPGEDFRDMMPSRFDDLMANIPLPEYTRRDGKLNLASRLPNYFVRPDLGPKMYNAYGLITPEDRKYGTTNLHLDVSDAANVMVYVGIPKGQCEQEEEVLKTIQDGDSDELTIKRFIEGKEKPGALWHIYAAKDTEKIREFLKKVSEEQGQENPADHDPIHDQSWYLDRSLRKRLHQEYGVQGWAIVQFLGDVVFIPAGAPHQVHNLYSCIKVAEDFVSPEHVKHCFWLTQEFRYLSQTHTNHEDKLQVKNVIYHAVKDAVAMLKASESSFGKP
# UniProt Q8IY47: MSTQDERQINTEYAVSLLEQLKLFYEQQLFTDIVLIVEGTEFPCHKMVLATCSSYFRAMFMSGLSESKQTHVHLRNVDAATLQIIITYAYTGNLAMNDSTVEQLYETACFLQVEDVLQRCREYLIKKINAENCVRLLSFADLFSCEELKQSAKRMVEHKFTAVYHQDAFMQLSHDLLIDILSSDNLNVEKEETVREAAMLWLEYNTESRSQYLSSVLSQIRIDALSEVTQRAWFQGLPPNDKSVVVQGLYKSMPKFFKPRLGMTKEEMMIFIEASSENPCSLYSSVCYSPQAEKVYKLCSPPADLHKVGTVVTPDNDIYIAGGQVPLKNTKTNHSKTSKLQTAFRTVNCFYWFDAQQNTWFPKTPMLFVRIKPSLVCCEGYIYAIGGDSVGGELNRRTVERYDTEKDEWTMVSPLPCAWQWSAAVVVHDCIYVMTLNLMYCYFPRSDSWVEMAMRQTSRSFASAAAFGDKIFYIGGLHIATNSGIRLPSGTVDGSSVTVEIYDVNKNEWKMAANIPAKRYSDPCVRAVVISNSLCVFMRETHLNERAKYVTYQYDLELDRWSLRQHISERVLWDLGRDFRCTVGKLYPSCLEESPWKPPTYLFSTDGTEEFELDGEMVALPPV
# UniProt Q8IU81: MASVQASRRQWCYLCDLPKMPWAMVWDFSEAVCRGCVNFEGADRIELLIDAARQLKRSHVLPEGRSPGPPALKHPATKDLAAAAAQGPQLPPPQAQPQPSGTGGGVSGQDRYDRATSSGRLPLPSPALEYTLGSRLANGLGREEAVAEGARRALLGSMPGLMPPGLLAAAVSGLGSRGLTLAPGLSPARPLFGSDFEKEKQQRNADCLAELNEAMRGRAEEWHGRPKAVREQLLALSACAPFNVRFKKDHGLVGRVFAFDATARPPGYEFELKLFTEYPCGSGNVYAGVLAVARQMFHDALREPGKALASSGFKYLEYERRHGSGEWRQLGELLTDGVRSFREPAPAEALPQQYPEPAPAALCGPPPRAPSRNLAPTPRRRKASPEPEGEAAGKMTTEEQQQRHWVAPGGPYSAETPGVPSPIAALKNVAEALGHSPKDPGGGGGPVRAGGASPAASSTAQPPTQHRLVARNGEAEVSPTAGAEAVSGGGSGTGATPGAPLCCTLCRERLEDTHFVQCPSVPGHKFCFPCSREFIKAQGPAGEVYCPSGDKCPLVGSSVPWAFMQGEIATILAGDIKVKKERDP
# UniProt Q9BUE6: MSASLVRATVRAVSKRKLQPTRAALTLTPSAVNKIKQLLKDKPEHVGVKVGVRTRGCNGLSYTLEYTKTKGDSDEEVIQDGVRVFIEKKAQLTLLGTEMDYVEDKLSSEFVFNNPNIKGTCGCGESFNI
# UniProt Q96HW7, whole entry, looked up: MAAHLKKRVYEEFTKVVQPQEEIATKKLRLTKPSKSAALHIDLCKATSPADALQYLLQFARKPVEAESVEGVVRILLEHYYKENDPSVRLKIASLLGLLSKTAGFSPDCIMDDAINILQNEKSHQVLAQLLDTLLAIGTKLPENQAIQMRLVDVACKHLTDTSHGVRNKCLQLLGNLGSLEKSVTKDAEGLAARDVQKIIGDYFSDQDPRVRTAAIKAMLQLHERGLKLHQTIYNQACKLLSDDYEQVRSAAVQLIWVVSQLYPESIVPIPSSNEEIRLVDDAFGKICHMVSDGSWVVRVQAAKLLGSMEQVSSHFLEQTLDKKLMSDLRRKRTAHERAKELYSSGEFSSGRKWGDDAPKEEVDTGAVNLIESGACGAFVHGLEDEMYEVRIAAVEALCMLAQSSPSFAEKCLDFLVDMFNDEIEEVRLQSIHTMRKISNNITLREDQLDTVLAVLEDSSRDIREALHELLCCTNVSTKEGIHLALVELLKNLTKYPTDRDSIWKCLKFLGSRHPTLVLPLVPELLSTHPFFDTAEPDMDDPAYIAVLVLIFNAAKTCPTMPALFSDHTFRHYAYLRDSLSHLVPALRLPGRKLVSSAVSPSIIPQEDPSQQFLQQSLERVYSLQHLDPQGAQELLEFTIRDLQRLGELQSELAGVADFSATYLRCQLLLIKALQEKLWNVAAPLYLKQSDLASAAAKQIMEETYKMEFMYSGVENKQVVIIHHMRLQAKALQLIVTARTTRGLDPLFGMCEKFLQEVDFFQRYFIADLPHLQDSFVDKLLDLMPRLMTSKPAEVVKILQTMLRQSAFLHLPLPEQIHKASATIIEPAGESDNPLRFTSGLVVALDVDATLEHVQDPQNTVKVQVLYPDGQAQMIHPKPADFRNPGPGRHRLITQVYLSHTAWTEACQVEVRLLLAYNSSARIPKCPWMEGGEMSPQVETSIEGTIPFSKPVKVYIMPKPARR
# This is one part of the list.
# Compound: Cc1sc2c(c1C)C(c1ccc(Cl)cc1)=N[C@@H](CC(=O)OC(C)(C)C)c1nnc(C)n1-2
# Experiment: log2 fold change, soluble protein after heating vs DMSO (PISA); higher = thermal stabilisation; K562 lysate, 10 uM; active = over 0.2 and 3.5 SD of the protein, either way, in both replicates (recomputed)
# Summary of the method: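 A 30 min treatment with 10 μM compound was applied to crude K562 extract at 1 mg/mL protein in PBS pH 7.4 with 1 mM MgCl2. Heating for 3 min spanned 48°C-58°C, after which aliquots were pooled, adjusted to 0.5% NP-40 at 4°C and spun at 21,000xg for 90 min. TMTpro 16plex LC-MS/MS of the supernatant, with channel sums equalised, gave values recorded as log-two fold change in thermal stability against solvent controls, from duplicates.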
row,Target,log2 fold change
1,IRAK1 (UniProt P51617),inactive: 0.004
2,IRF2BPL (UniProt Q9H1B7),inactive: 0.047
3,KATNA1 (UniProt O75449),inactive: 0.006
4,KATNAL1 (UniProt Q9BW62),inactive: -0.144
5,IPO11 isoform 2 (UniProt Q9UI26),inactive: -0.014
6,KCTD15 (UniProt Q96SI1),inactive: 0.029
7,KANSL3 (UniProt Q9P2N6),inactive: 0.037
8,KCTD9 (UniProt Q7L273),inactive: -0.083
9,KCTD2 (UniProt Q14681),inactive: 0.099
10,KCTD5 (UniProt Q9NXV2),inactive: -0.111
11,ITM2A (UniProt O43736),inactive: 0.11
12,JMJD6 isoform 3 (UniProt Q6NYC1),inactive: 0.012
13,KCNAB2 (UniProt Q13303),inactive: 0.092
14,ISOC2 (UniProt Q96AB3),inactive: 0.03
15,ISG20 (UniProt Q96AZ6),inactive: -0.017
16,KDM3A (UniProt Q9Y4C1),inactive: -0.006
17,KCTD20 (UniProt Q7Z5Y7),inactive: -0.009

row,Target,log2 fold change
1,KDM1B (UniProt Q8NB78),inactive: 0.061
2,ISCU (UniProt Q9H1K1),inactive: 0.036
3,IQCB1 (UniProt Q15051),inactive: -0.057
4,KBTBD2 (UniProt Q8IY47),inactive: 0.012
5,IREB2 (UniProt P48200),inactive: 0.015
6,IRF2BP1 (UniProt Q8IU81),inactive: 0.017
7,INTS14 (UniProt Q96SY0),inactive: 0.007
8,ISY1 isoform 1 (UniProt Q9ULR0),inactive: -0.12
9,IQSEC2 (UniProt Q5JU85),inactive: 0.182
10,IRF2 (UniProt P14316),inactive: -0.034
11,ITGB1BP1 (UniProt O14713),inactive: -0.155
12,ISCA2 (UniProt Q86U28),inactive: 0.022
13,ISCA1 isoform 2 (UniProt Q9BUE6),inactive: -0.021
14,KAT6B (UniProt Q8WYB5),inactive: -0.026
15,INTS4 (UniProt Q96HW7),inactive: -0.022
16,KAT8 (UniProt Q9H7Z6),inactive: 0.037

# Looked up above:
# log2 fold change, KCTD9 (UniProt Q7L273) is entered as inactive: -0.083
# log2 fold change, IRAK1 (UniProt P51617) is entered as inactive: 0.004
